These are yes or no findings as the source states them, for the method shown. In cells and extracts the contact can be indirect. These calls come from enrichment with a bait or labelling near it, and not all partners need be listed. Sequences can lack the tags named with a protein.
Target: T1, EPS8L2 with a C-terminal Flag tag (overexpressed in HCT116 and SW480 cells) (human) (UniProt Q9H6S3)
T1 sequence: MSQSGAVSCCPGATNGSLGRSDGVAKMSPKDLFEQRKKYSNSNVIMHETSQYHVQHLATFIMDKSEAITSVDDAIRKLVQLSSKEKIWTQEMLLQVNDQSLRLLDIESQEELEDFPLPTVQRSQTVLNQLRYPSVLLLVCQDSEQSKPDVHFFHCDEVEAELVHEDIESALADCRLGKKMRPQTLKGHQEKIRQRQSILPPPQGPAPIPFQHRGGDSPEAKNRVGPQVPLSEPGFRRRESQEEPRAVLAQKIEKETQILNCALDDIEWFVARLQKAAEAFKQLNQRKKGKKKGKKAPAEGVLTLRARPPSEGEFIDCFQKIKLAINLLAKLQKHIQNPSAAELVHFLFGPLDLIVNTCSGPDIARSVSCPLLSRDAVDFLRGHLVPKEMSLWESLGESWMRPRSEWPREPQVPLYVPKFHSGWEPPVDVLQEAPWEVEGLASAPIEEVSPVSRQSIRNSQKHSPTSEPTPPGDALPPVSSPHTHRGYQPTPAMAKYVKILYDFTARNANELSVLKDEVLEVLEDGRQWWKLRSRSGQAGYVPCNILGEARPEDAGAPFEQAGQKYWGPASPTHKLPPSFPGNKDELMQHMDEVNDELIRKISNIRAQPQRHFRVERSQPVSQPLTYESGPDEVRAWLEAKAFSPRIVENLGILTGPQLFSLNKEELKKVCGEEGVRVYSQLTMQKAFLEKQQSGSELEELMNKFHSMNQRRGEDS
Test: affinity purification with mass spectrometry; IgG or Flag antibody added to HCT116 and SW480 cell lysates (RIPA buffer), Protein A/G agarose beads; differential silver-stained band between 40 and 55 kDa cut out for MS

Protein sequences, listed by entry. Tags and fused reporters are not part of them.
UniProt P67809: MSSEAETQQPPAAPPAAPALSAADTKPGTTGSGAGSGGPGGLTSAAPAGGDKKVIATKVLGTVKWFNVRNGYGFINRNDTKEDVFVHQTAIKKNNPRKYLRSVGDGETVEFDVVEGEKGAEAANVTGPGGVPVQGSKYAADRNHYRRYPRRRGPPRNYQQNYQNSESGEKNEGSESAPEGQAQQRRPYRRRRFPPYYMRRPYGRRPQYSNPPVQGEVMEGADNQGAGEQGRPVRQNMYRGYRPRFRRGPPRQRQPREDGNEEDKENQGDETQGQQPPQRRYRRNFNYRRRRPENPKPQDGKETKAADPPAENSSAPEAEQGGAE

With “YBX1 (endogenous, HCT116 and SW480 cells) (from UniProt P67809 1-324)” the binding was “binds”.

— article PMC12335500
